Assay results taken from the supplement of paper PMC12067093, “Discovery and optimisation of a covalent ligand for TRIM25 and its application to targeted protein ubiquitination” (Chemical Science, 2025).
This is one part of the list.

Chains of the proteins cited; added tags and fusions are not shown. Lines headed by an entry give the natural chain unless they say otherwise; changes in a name come on top.
UniProt Q8N2W9: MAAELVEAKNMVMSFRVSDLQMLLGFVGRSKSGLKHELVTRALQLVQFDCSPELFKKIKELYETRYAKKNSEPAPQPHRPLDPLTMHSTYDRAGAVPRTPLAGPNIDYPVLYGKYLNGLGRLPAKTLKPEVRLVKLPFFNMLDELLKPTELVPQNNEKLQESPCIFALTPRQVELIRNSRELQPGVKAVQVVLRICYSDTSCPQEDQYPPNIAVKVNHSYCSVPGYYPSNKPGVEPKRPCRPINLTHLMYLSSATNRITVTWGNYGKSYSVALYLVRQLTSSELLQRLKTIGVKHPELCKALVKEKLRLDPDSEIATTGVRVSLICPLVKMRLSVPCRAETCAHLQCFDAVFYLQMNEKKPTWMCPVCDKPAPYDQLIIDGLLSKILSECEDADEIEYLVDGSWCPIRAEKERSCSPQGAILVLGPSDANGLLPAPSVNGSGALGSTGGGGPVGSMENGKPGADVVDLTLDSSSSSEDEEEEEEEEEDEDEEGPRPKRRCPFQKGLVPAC
UniProt O94880: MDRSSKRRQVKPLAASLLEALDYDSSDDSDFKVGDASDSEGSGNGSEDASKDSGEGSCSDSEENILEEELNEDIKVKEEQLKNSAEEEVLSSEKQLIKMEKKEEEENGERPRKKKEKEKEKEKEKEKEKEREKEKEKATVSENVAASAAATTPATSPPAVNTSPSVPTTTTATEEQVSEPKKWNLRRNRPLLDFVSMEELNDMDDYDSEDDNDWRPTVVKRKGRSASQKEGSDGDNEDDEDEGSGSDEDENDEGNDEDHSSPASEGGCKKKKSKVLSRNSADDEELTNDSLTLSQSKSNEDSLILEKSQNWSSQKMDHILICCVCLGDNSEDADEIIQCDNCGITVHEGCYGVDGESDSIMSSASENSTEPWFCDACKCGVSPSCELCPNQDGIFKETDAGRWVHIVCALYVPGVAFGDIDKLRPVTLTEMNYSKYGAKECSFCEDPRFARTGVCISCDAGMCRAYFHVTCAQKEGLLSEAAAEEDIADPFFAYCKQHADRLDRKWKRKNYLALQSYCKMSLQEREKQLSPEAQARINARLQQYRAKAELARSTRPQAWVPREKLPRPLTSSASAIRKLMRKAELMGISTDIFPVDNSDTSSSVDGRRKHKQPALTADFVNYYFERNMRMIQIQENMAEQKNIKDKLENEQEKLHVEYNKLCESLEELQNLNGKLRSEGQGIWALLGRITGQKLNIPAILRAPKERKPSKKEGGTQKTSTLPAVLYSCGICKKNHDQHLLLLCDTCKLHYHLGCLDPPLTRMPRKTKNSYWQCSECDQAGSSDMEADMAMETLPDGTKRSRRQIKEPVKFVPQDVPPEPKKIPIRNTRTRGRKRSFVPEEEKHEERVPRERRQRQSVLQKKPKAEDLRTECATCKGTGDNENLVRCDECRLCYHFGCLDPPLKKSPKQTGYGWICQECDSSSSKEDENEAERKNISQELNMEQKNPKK
UniProt P07737, whole entry, looked up: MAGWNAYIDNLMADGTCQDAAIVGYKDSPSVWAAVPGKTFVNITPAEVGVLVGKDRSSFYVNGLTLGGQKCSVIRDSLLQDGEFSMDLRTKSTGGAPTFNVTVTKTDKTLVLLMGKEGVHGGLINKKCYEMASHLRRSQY
UniProt O00443: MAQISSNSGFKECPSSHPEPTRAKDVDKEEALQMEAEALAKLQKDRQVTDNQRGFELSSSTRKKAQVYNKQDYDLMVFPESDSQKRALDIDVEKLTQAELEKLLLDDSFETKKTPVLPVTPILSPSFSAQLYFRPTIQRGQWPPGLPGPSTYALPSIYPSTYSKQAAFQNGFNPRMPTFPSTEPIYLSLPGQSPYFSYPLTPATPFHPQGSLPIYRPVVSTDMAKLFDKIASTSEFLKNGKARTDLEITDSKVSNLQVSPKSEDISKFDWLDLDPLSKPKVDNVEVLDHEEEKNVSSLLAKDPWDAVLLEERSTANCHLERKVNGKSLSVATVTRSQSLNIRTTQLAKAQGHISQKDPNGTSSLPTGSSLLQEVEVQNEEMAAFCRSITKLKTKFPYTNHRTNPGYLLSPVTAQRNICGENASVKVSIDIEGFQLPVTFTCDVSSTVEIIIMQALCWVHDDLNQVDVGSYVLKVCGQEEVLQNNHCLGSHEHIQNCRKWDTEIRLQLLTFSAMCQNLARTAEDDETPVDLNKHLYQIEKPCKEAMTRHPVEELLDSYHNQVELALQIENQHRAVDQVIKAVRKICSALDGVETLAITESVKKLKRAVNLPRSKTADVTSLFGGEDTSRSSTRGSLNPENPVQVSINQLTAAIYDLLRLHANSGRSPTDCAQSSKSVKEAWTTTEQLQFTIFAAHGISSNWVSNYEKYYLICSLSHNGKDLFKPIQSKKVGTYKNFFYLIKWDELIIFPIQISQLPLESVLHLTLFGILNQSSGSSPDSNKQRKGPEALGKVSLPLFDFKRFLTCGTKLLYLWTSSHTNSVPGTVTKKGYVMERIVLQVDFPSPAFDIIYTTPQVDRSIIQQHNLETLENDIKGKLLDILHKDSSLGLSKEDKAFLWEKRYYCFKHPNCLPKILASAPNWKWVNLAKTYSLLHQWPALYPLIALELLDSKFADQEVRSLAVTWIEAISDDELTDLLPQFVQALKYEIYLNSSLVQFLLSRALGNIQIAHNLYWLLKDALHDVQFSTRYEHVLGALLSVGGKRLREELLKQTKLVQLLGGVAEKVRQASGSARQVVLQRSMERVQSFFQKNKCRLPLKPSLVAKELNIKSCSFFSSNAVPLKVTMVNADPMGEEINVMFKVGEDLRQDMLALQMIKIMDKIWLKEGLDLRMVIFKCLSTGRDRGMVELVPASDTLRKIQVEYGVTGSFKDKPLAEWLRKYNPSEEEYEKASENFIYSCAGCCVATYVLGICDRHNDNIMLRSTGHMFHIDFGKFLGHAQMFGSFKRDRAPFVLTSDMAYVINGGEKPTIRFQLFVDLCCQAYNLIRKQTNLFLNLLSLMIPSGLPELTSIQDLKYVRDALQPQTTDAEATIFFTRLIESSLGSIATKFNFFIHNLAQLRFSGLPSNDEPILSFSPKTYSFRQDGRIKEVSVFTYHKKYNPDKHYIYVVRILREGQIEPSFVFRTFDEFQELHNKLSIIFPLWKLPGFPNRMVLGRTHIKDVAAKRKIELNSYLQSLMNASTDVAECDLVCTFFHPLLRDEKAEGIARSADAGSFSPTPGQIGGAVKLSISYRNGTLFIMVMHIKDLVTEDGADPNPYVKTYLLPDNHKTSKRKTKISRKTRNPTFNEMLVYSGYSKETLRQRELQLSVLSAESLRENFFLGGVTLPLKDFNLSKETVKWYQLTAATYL
UniProt Q6ZUJ8: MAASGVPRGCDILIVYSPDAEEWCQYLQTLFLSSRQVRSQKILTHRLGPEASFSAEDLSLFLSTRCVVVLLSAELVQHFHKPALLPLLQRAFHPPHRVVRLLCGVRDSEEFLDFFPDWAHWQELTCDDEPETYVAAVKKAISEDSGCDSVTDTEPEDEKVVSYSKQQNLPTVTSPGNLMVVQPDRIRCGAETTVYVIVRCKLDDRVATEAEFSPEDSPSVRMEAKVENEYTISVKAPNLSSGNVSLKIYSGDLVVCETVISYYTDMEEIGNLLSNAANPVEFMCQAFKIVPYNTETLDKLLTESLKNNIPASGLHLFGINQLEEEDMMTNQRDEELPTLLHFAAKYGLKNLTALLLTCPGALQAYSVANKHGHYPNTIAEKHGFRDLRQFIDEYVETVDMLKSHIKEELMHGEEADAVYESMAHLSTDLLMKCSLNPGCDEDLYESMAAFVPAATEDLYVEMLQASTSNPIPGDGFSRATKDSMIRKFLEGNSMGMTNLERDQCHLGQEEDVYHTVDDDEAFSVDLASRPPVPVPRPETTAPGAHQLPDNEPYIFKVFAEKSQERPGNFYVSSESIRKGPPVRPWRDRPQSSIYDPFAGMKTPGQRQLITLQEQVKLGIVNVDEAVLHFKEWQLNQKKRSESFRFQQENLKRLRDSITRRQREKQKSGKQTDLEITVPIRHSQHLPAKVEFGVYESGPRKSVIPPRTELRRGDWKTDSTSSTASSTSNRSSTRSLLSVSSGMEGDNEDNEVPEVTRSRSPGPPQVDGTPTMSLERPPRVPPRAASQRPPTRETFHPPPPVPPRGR
UniProt Q8IWS0: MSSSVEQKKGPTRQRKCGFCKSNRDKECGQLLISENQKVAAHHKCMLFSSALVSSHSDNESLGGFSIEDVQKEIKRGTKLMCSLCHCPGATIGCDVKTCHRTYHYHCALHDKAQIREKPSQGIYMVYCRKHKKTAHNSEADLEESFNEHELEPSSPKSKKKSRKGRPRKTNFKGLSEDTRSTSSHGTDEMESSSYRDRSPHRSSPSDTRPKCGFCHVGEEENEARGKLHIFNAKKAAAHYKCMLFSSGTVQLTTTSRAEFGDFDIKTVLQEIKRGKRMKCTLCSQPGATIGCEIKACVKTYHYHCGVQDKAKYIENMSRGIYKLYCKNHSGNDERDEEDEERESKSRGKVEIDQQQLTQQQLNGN
UniProt P42338: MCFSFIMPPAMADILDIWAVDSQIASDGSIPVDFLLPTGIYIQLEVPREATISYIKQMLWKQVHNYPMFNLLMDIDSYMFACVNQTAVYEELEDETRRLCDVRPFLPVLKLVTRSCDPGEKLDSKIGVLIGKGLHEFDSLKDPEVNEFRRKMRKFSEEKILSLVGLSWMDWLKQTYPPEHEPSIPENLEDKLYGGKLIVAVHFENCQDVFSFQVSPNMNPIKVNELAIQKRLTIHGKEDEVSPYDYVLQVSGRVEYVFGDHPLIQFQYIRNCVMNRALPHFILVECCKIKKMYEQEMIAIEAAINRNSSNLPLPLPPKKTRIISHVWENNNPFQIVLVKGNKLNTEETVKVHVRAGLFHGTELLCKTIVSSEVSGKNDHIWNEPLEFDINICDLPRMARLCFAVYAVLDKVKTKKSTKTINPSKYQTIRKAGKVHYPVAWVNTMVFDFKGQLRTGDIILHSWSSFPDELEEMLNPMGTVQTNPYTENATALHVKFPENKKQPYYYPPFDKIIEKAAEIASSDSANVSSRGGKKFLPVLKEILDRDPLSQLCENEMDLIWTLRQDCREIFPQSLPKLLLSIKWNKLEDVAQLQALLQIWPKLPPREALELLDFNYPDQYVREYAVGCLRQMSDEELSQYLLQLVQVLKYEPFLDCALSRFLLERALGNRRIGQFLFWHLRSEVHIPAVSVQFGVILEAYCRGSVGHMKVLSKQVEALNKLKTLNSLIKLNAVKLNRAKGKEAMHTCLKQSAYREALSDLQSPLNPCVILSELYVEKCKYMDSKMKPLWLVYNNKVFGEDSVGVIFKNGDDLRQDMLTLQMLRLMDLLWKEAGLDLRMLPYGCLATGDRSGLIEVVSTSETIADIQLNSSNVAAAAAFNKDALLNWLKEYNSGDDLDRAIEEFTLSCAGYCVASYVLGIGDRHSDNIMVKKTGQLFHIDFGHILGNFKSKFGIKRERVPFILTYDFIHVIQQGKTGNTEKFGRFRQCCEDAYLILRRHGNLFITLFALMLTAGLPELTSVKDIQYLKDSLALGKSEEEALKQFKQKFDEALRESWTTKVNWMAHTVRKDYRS
UniProt Q7RTV0, whole entry, looked up: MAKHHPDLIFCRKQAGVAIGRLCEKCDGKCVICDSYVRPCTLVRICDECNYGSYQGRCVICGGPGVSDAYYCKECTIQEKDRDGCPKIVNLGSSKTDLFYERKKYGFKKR
UniProt Q01813: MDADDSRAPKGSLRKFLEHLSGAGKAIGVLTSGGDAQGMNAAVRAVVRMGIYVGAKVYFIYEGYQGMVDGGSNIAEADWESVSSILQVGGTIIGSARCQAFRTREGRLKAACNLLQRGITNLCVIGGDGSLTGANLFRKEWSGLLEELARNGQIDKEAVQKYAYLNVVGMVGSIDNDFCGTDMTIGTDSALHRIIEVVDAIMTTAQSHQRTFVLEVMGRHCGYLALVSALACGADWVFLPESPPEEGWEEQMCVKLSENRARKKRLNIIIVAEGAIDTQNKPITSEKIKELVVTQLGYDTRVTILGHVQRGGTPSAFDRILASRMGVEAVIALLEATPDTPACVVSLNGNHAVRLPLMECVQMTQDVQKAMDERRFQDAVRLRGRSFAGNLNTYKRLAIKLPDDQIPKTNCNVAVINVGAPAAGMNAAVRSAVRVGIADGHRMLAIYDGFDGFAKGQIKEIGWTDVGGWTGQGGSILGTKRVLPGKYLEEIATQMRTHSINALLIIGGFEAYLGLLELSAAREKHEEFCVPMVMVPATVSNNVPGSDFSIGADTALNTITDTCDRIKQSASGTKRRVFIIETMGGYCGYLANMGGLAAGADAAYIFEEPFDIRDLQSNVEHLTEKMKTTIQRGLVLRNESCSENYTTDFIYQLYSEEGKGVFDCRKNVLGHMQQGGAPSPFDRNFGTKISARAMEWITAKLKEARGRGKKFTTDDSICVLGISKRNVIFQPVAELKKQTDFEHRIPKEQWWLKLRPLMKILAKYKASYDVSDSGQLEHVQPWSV
UniProt P35080, whole entry: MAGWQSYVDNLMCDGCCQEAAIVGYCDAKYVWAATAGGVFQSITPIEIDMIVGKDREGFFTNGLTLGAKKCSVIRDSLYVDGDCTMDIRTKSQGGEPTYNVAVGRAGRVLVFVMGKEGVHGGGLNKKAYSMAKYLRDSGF

Compound: Cc1cc(ccc1-c1ccccc1)C(=O)N1CCCN(CC1)C(=O)CCl [compound 10]
Experiment: probe-labelled cysteine peptide fold change vs DMSO (competition) (log2 fold change); higher = less target engagement (more negative = stronger competition)
Conditions: THP-1, incubation time: 4 h
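Note: competitive profiling in live THP-1 cells: cysteine peptides tagged with an iodoacetamide desthiobiotin (IA-DTB) probe, intensity after compound treatment relative to DMSO-treated cells.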

| Target | probe-labelled cysteine peptide fold change (10 µM) | probe-labelled cysteine peptide fold change (50 µM) |
| --- | --- | --- |
| PIAS4_Q8N2W9_50_ALQLVQFDCSPELFK (UniProt Q8N2W9) | -0.0498 | 0.0618 |
| PFAS_O15067_606_IVLVDDRECPVR (UniProt O15067) | -0.134 | -0.174 |
| PHF14_O94880-2_607+612_LCYHFGCLDPPLK (UniProt O94880) | -0.0595 | -0.438 |
| PGK1_P00558_316_TGQATVASGIPAGWMGLDCGPESSKK (UniProt P00558) | -0.0721 | -0.16 |
| PI4K2A_Q9BTU6_124_CIFPER (UniProt Q9BTU6) | 0.154 | 0.216 |
| PELO_Q9BRX2_175_KGNCSQHDR (UniProt Q9BRX2) | 0.038 | -0.096 |
| PEX19_P40855_229_ICEQFEAETPTDSETTQK (UniProt P40855) | 0.283 | -0.035 |
| PHF8_Q9UPP1_89_AADIDLYHCPNCEVLHGPSIMK (UniProt Q9UPP1) | 0.0843 | 0.0538 |
| PFN1_P07737_128_CYEMASHLR (UniProt P07737) | -0.0495 | 0.0955 |
| PICK1_Q9NRD5_145_AILCNDGLVK (UniProt Q9NRD5) | -0.0645 | -0.0103 |
| PEX3_P56589_65_TCNMTVLSMLPTLR (UniProt P56589) | -0.147 | -0.255 |
| PIGH_Q14442_166_LDCLIEVYR (UniProt Q14442) | -0.0537 | 0.0701 |
| PIK3C2A_O00443_13_ECPSSHPEPTR (UniProt O00443) | -0.0787 | -0.38 |
| PGD_P52209_171_VGTGEPCCDWVGDEGAGHFVK (UniProt P52209) | -0.171 | -0.741 |
| PHGDH_O43175_254_ALQSGQCAGAALDVFTEEPPRDR (UniProt O43175) | -0.0942 | 0.023 |
| PIGA_P37287_348_VGGIPEVLPENLIILCEPSVK (UniProt P37287) | 0.0255 | -0.199 |
| PGLS_O95336_237_LCWFLDEAAAR (UniProt O95336) | -0.0326 | -0.0213 |
| PECAM1_P16284_572_EQEGEYYCTAFNR (UniProt P16284) | -0.387 | -0.274 |
| PIK3AP1_Q6ZUJ8_147_AISEDSGCDSVTDTEPEDEK (UniProt Q6ZUJ8) | -0.165 | -0.16 |
| PHF14_O94880_518_NYLALQSYCK (UniProt O94880) | -0.209 | -0.0964 |
| PGK1_P00558_379_GCITIIGGGDTATCCAK (UniProt P00558) | 0.0575 | 0.231 |

| Target | probe-labelled cysteine peptide fold change (10 µM) | probe-labelled cysteine peptide fold change (50 µM) |
| --- | --- | --- |
| PI4KA_P42356_459_DEQGAENLCIK (UniProt P42356) | 0.0831 | 0.0987 |
| PHF6_Q8IWS0_305_TYHYHCGVQDK (UniProt Q8IWS0) | -0.0169 | 0.0111 |
| PFAS_O15067_975_DAGLHCLELGHTGEAGPHAMVR (UniProt O15067) | -0.00673 | -0.104 |
| PIK3CB_P42338_116_SCDPGEK (UniProt P42338) | -0.0749 | -0.135 |
| PECAM1_P16284_256_CTIQVTHLAQEFPEIIIQK (UniProt P16284) | -0.0253 | -0.188 |
| PHF5A_Q7RTV0_40_CVICDSYVRPCTLVR (UniProt Q7RTV0) | -0.0813 | 0.0572 |
| PHYH_O14832_145_YVECFTGPNIMAMHTMLINKPPDSGKK (UniProt O14832) | -0.0633 | -0.302 |
| PFN1_P07737_128_KCYEMASHLR (UniProt P07737) | -0.333 | -0.673 |
| PELP1_Q8IZL8_191_DISMNHLPGLLTSLLGLRPECEQSALEGMK (UniProt Q8IZL8) | -0.134 | 0.18 |
| PFAS_O15067_351_GAHVVAGTAGYCFGNLHIPGYNLPWEDPSFQYPGNFAR (UniProt O15067) | 0.0247 | -0.409 |
| PFAS_O15067_1044_MGPSYCLPPTFPK (UniProt O15067) | -0.165 | 0.101 |
| PHGDH_O43175_18+19_VLISDSLDPCCR (UniProt O43175) | -0.0629 | -0.691 |
| PFKFB3_Q16875_387_QENVLVICHQAVLR (UniProt Q16875) | 0.168 | 0.336 |
| PIK3C2A_O00443_418_NICGENASVK (UniProt O00443) | -0.0686 | -0.555 |
| PELP1_Q8IZL8_536_TILMCGPLIK (UniProt Q8IZL8) | 0.0457 | 0.49 |
| PIAS4_Q8N2W9_390+405_ILSECEDADEIEYLVDGSWCPIR (UniProt Q8N2W9) | -0.493 | 0.228 |
| PGM3_O95394_200_QASCSGDEYR (UniProt O95394) | -0.36 | -0.707 |
| PFKFB2_O60825_255_TIYLCR (UniProt O60825) | -0.0341 | 0.0668 |
| PHF1_O43189_139_QCVFAIATK (UniProt O43189) | 0.0794 | -0.157 |
| PIGX_Q8TBF5_175_YHRPHSEDGEASIVVNNPDLLMFCDQEFPILK (UniProt Q8TBF5) | -0.034 | 0.0393 |
| PGK1_P00558_367_GCITIIGGGDTATCCAK (UniProt P00558) | 0.0756 | -0.00293 |

| Target | probe-labelled cysteine peptide fold change (10 µM) | probe-labelled cysteine peptide fold change (50 µM) |
| --- | --- | --- |
| PFKM_P08237_709_IFANTPDSGCVLGMR (UniProt P08237) | -0.284 | -0.261 |
| PHYKPL_Q8IUZ5_416_FKPPMCFSLDNAR (UniProt Q8IUZ5) | 0.0387 | -0.103 |
| PGAM1_P18669_55_DAGYEFDICFTSVQKR (UniProt P18669) | -0.0838 | -0.521 |
| PHF8_Q9UPP1-2_8_ASVPVYCLCR (UniProt Q9UPP1) | 0.206 | 0.544 |
| PHF6_Q8IWS0_85_LMCSLCHCPGATIGCDVK (UniProt Q8IWS0) | 0.294 | 0.293 |
| PGP_A6NDG6_272_LDTDILLGATCGLK (UniProt A6NDG6) | 0.0876 | 0.334 |
| PFKP_Q01813_411_TNCNVAVINVGAPAAGMNAAVR (UniProt Q01813) | -0.0719 | 0.0388 |
| PFN1_P07737_17_AGWNAYIDNLMADGTCQDAAIVGYK (UniProt P07737) | -0.117 | 0.0741 |
| PIAS1_O75925_228_VNTKPCSLPGYLPPTK (UniProt O75925) | -0.0752 | -0.512 |
| PECAM1_P16284_405_SNTVQIVVCEMLSQPR (UniProt P16284) | 0.157 | 0.0756 |
| PHKA2_P46019_238_SVIHVLPDEVEHCQSILFSMLPR (UniProt P46019) | 0.0243 | -0.294 |
| PHGDH_O43175_116_GILVMNTPNGNSLSAAELTCGMIMCLAR (UniProt O43175) | 0.0514 | 0.173 |
| PI4KA_P42356_58_LLCMCPVDFHGIFQLDER (UniProt P42356) | 0.076 | -0.137 |
| PIAS3_Q9Y6X2_366_KPTWTCPVCDK (UniProt Q9Y6X2) | 0.072 | 0.0584 |
| PGD_P52209_170_VGTGEPCCDWVGDEGAGHFVK (UniProt P52209) | -0.195 | -0.673 |
| PHF14_O94880_471_AYFHVTCAQK (UniProt O94880) | 0.15 | 0.39 |
| PELP1_Q8IZL8_645_VPPLQPMGPTCPTPAPVPPPEAPSPFR (UniProt Q8IZL8) | -0.103 | 0.0512 |
| PFDN5_Q99471_49_DCLNVLNK (UniProt Q99471) | 0.21 | 0.0309 |
| PHGDH_O43175_281_ALVDHENVISCPHLGASTK (UniProt O43175) | -0.0468 | -0.141 |
| PHF21A_Q96BD5_514_VYHLDCLDPPLK (UniProt Q96BD5) | 0.215 | 0.335 |
| PEX6_Q13608_761_AVATECSLTFLSVK (UniProt Q13608) | 0.178 | 0.204 |

| Target | probe-labelled cysteine peptide fold change (10 µM) | probe-labelled cysteine peptide fold change (50 µM) |
| --- | --- | --- |
| PHGDH_O43175_111_GILVMNTPNGNSLSAAELTCGMIMCLAR (UniProt O43175) | 0.128 | 0.0721 |
| PHF5A_Q7RTV0_30+40_CVICDSYVRPCTLVR (UniProt Q7RTV0) | 0.118 | -0.292 |
| PGM3_O95394_93_LVDPLGEMLAPSWEEHATCLANAEEQDMQR (UniProt O95394) | 0.355 | 0.261 |
| PIAS3_Q9Y6X2_620_EGHGGPLPSGPSLTGCR (UniProt Q9Y6X2) | 0.192 | 0.654 |
| PHGDH_O43175_19_KVLISDSLDPCCR (UniProt O43175) | -0.213 | -0.743 |
| PGAM5_Q96HS1_168_HLPGVCK (UniProt Q96HS1) | -0.066 | -0.231 |
| PHKA1_P46020_697_FQAAVQTTCDLMSLVTK (UniProt P46020) | -0.0445 | -0.809 |
| PGK1_P00558_367+379+380_GCITIIGGGDTATCCAK (UniProt P00558) | 0.425 | -0.635 |
| PHF1_O43189_327_CLFGLHAR (UniProt O43189) | -0.212 | -0.309 |
| PHIP_Q8WWQ0_1020_YEVGLPTLCCLK (UniProt Q8WWQ0) | 0.0426 | -0.0146 |
| PGGT1B_P53609_338_WPDSHPDALHAYFGICGLSLMEESGICK (UniProt P53609) | 0.0199 | -0.0361 |
| PECAM1_P16284_386_SDSGTYICTAGIDK (UniProt P16284) | -0.222 | 0.00631 |
| PIK3AP1_Q6ZUJ8_358_NLTALLLTCPGALQAYSVANK (UniProt Q6ZUJ8) | 0.0198 | -0.242 |
| PFKP_Q01813_718_FTTDDSICVLGISK (UniProt Q01813) | 0.135 | 0.0174 |
| PFN2_P35080_84_DSLYVDGDCTMDIR (UniProt P35080) | 0.106 | 0.184 |
| PHF14_O94880-2_612_LCYHFGCLDPPLK (UniProt O94880) | -0.000102 | -0.329 |
| PHPT1_Q9NRX4_69_QGCDCECLGGGR (UniProt Q9NRX4) | -0.0247 | 0.0348 |
| PEX3_P56589_337_IIPIVNGQIHSVCSETPSHFVQDLLTMEQVK (UniProt P56589) | 0.0239 | -0.0998 |
| PFKL_P17858_708_VFANAPDSACVIGLK (UniProt P17858) | -0.0317 | 0.0814 |
| PHC3_Q8NDX5_808_FCTMSCAK (UniProt Q8NDX5) | -0.142 | -0.367 |
| PIK3CB_P42338_392_NDHIWNEPLEFDINICDLPR (UniProt P42338) | 0.119 | 0.395 |
